# Assay results from patent US5225530A (priority 1986, dated 1993).
# Assay: peptide synthesis
# Settings: purification step, relative to peptide removed from the resin
substance,measurement,value
PEPTIDE1{K.P.K.H.K.K.L.K.Q.P.G.D.G.N.P.N.A.N.P.N.A.N.P.N.A.N.P.N.A}$$$$V2.0,step yield,40%

# HELM strings list residues between dots; [ac] is acetyl, [am] amide, other brackets name non-standard units.
